Among all 320,000 compounds or so, about 2,100 (0.66%) were called active. Inconclusive results, whose numbers are uncertain, are shown with a selection of clear calls. The call rests on the fitted dose curve; in most records, active means well fitted inhibition curve with a large enough effect in the signal ratio, with a control signal flat (not every such curve was filed as active); inconclusive means small, poorly fitted or top-dose-only effect, or effect the other way, or a change in a side signal; inactive means flat fitted curve, though single readings scatter; the % refers to the signal ratio. Where the call is inconclusive, the potency comes from a doubtful curve fit.
assay: qHTS Assay for Lipid Storage Modulators in Drosophila S3 Cells; conditions: BODIPY lipid droplet fluorescence, 18-24 h, cells fed with added oleic acid; lipid storage change, negative = inhibition: at 46.1 µM (top of the series) unless noted
In short: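 Drosophila S3 cells got compounds at several concentrations plus oleic acid (400 uM solution). Laser-scanning cytometry with 488 nm excitation read lipid droplets at 500-530 nm and cells at 575-640 nm. Percent activity was relative to 20 uM Triacsin C.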
On the % scale 0 is the no-effect control and ±100 the full control effect; potency means the concentration at half of the fitted maximal effect.

| Compound | lipid storage change, negative = inhibition | Potency |
| --- | --- | --- |
| Cc1ccc(C(=O)COC(=O)CN2C(=O)C3C4CCC(C4)C3C2=O)cc1C (centres undefined) | inconclusive: -47.8% |  |
| Cc1cc(=O)nc2c3ccccc3n(C(C)C(=O)Nc3c(F)c(F)c(F)c(F)c3F)n12 (centres undefined) | inconclusive: -5.15% |  |
| COc1cccc(CN(C)CC(=O)NCc2ccccc2Cl)c1 |  | inconclusive: 29.1 µM [falling, single point] |
| O=C(C1=C[C@@H](c2coc3ccccc3c2=O)C[C@@H](OCCCCO)O1)N1CCOCC1 | inconclusive: -45.3% |  |
| OCC[C@@H]1C[C@@H](O)[C@H](O)[C@]2(OCCCc3ccccc32)O1 | inconclusive: 23.3% |  |
| COc1ccc(CCNc2nc(-c3sc(N)nc3C)cs2)cc1OC |  | inconclusive: 0.231 µM [activator, full curve, poor fit] |
| COc1cccc(/C=C/C(=O)OCC(=O)N2CCN(S(=O)(=O)c3ccc(Cl)cc3)CC2)c1 | inconclusive: 11.5% |  |
| Cc1ccc(NC(=O)C2CCN(S(=O)(=O)c3c(C)noc3/C=C/c3ccco3)CC2)nc1 | inconclusive: 28.8% |  |
| CCOC(=O)COc1ccccc1/C=N/O | inconclusive: 0.435% |  |
| O=C1OC(COc2ccc(Br)cc2)CN1c1ccccc1 (centres undefined) | inconclusive: -1.53% |  |
| Cc1cc(C(=O)Nc2cc(C(F)(F)F)ccc2N2CCOCC2)no1 | inconclusive: 0.237% |  |
| Cc1nc2c3cc(Cl)ccc3n(CCN3CCOCC3)c2s1 | inconclusive: 21.6% |  |
| NC(=O)c1ccc(NC(=O)CCc2nc3sc4c(c3c(=O)[nH]2)CCCC4)cc1 | inconclusive: 11.1% |  |
| CC(C(=O)Nc1ncc([N+](=O)[O-])s1)N1C(=O)c2ccccc2S1(=O)=O (centres undefined) | inconclusive: -10.3% |  |
| CCCN1CCN(CCCNC(=O)C(CC)n2nc(C)c3sc4ccccc4c3c2=O)CC1 (centres undefined) |  | inconclusive: 29.1 µM [activator, single point] |
| CCOC(=O)C1(Cc2cccc(F)c2)CCN(CCCn2cccn2)CC1 | inconclusive: 37.8% |  |
| O=C(O)c1ccc2c(c1)C(=O)N([C@@H](Cc1ccc(O)cc1)C(=O)O)C2=O | inconclusive: 5.37% |  |
| COC(=O)c1ccc2c(=O)n(CCN3CCOCC3)c(SCC(=O)c3ccccc3)nc2c1 | inconclusive: 13.9% |  |
| COc1ccc2c3n([n+]([O-])c2c1)CCN=C3c1cc(Cl)c(N)c(Cl)c1 |  | inconclusive: 0.0046 µM [activator, full curve, poor fit] |
| CCN1C(=O)[C@H]2[C@@H](c3ccc(-c4ccc(Cl)c(Cl)c4)cc3)N[C@@](CC(C)C)(C(=O)OC)[C@H]2C1=O |  | inconclusive: 25.9 µM [falling, partial curve, poor fit] |
| COc1ccccc1NS(=O)(=O)c1ccc2oc(SC)nc2c1 |  | inconclusive: 0.092 µM [activator, partial curve, poor fit] |
| CCn1c2c(c(=N)c3ccccc31)CCC2 | inconclusive: -7.74% |  |
| Cc1cnc(NC(=O)CCCNC(=O)c2ccc(Cl)cc2)s1 |  | inconclusive: 16.4 µM [falling, partial curve, poor fit] |
| COc1cc(-c2cn[nH]c2N)cc(OC)c1OC | inconclusive: -5.45% |  |
| CCNNC(=O)C(O)(c1cccc(C)c1)c1cccc(C)c1 | inconclusive: 1.69% |  |
| CN1CCN(NC(=O)c2ccc(F)cc2)CC1 | inconclusive: -12.6% |  |
| Cc1ccc(CSCCNC(=O)CN2C(=O)c3ccccc3S2(=O)=O)cc1 | inconclusive: -32.4% |  |

| Compound | lipid storage change, negative = inhibition | Potency |
| --- | --- | --- |
| O=C(O)C/C(=C\c1cc(Br)cs1)c1nc2ccccc2o1 | inconclusive: 263% |  |
| COCCCNC(=S)N1CCN(c2nc(C)nc3sc4c(c23)CCCC4)CC1 | inconclusive: -74.8% |  |
| CCOc1ccc(S(=O)(=O)Nc2ccc(C(=O)NCCCN3CCOCC3)cc2)cc1 | inconclusive |  |
| Cc1cc(C)c2c(CN3CCN(Cc4ccccc4)CC3)cc(=O)oc2c1C | inconclusive: 43% |  |
| COCCN(C(=O)COC(=O)c1c(NC(C)=O)sc(C)c1C)c1c(N)n(Cc2ccccc2)c(=O)[nH]c1=O | inconclusive: -6.93% |  |
| CC(=O)c1c(C)nc(C)nc1NC(=O)C(C)C | inconclusive: 3.01% |  |
| O=C(CCc1nnc(CCCCc2ccccc2)o1)NCc1cccc(F)c1 | inconclusive: -23.1% |  |
| CCC(=O)Nc1ccc(C(=O)COC(=O)c2nc3nccc(C)n3n2)cc1 | inconclusive: -30.6% |  |
| Cc1ccccc1NC(=O)c1sc(Cl)nc1C | inactive: 11.6% |  |
| Cc1nn(C)c(C)c1CCC(=O)N1CCCC(Nc2ccc(C(C)C)cc2)C1 (centres undefined) | inconclusive: -1.59% |  |
| CC(NC(=O)COc1ccc([N+](=O)[O-])cc1)c1ccccc1 (centres undefined) |  | inconclusive: 0.116 µM [falling, single point] |
| Cc1cc(C)cc(NC(=O)COc2ccc(C(=S)N3CCOCC3)cc2)c1 | inconclusive: 22.8% |  |
| CCN(CC(=O)Nc1ccccc1C(F)(F)F)C(=O)c1ccccc1Sc1ccccc1C#N | inconclusive: 9.5% |  |
| COc1ccccc1OCC(=O)Nc1ccc(Cl)cc1 | inactive: -1.36% |  |
| O=C(O)c1cc2c(ccc3ccccc32)[nH]1 | inconclusive: 0.58% |  |
| Cc1ccc(CNC(=O)CCCCCNC(=O)N2CCn3c2nc2ccccc23)cc1 |  | inconclusive: 0.58 µM [activator, single point] |
| C=C(C)C(=O)N1CC2(CC(c3cccc(NC(=O)c4ccccc4)c3)=NO2)C[C@@H]1C(N)=O (some centres undefined) |  | inconclusive: 29.1 µM [rising, single point] |
| COc1cc([N+](=O)[O-])ccc1N/C=C/C(=O)c1cccs1 |  | active: 11.6 µM |
| Nc1ccc(C(=O)NCC(=O)O)cc1 | inconclusive: 10.7% |  |
| O=C(NNc1ccc([N+](=O)[O-])cc1)C1CC1c1ccccc1 (centres undefined) | inconclusive: -1.51% |  |
| COc1ccc(NS(=O)(=O)c2ccc(N)cc2)nn1 | inconclusive: -16.4% |  |
| Cc1ccsc1C(=O)N(C)CC(=O)N(CC(C)C)c1c(N)n(CC(C)C)c(=O)[nH]c1=O | inconclusive |  |
| Cc1[nH]nc2c1C(c1ccc(N(C)C)cc1)C1=C(CC(C)(C)CC1=O)N2 (centres undefined) | inconclusive: -31% [at 0.00295 µM] |  |
| COc1ccc(/C=N/NC(=O)c2ccoc2C)cc1COc1c(C)cccc1C | inconclusive: -13.2% |  |
| O=C(NCCc1ccc(Cl)cc1)c1cc(-c2ccccn2)nc2ccccc12 |  | inconclusive: 1.16 µM [activator, full curve, poor fit] |
| COc1c(C)cccc1C(=O)Nc1ccc(OCC(=O)N2CCOCC2)cc1C | inconclusive: -100% |  |
| O=c1c2cn[nH]c2[nH]c(=S)n1-c1ccccc1Cl | inconclusive: -29.5% |  |

| Compound | lipid storage change, negative = inhibition | Potency |
| --- | --- | --- |
| CC(NC(=O)CN1C(=O)NC2(CCCCC2C)C1=O)c1ccccc1 (centres undefined) | inconclusive: -17.3% |  |
| O=C(COC(=O)c1cccnc1Cl)Nc1cc(S(=O)(=O)N2CCOCC2)ccc1Cl |  | inconclusive: 6.51 µM [falling, single point] |
| CCOC(=O)COc1ccc2cc(C(=O)OCC)c(=O)oc2c1 | inconclusive: -11.5% |  |
| Cc1cc(Cl)ccc1OCC(=O)Nc1ccc(CN2CCOCC2)cc1 | inconclusive: 12.6% |  |
| CCCN1CCC(=O)N([C@H](CSc2ccc(C)cc2)c2ccccc2)CC1 | inconclusive: 10% |  |
| COc1ccc(/C=C2\SC(=Nc3ccccc3)NC2=O)cc1 | inactive: -17.6% |  |
| O=C(Nc1cccc(Br)c1)c1cccc(OC(=S)N2CCOCC2)c1 | inconclusive: -43.2% |  |
| Brc1cccc(CNc2nc3ccccc3n2CCN2CCOCC2)c1 | inconclusive: -18.4% |  |
| CNc1nc(Nc2ccc(C)c(Cl)c2)c2cnn(C)c2n1 | inconclusive: -16.9% |  |
| O=C(CNS(=O)(=O)c1ccc(Br)s1)NCc1ccc2c(c1)OCO2 | inconclusive: 9.81% |  |
| CC(=O)Nc1ccc(S(=O)(=O)Nc2ccc(S(=O)(=O)N3CCCCCC3)cc2)cc1 | inconclusive: 31.4% |  |
| CCC(C)(C)NC(=O)C(c1ccc(OC)cc1)N(C(=O)CCC(=O)Nc1cc(C)on1)c1ccc2c(c1)OCO2 (centres undefined) |  | inconclusive: 0.411 µM [activator, partial curve] |
| COc1ccccc1N1C(=O)c2cccc3c(C(=O)O)ccc(c23)C1=O | inconclusive: -39.8% |  |
| CS(=O)(=O)N(CC(=O)N1CCOCC1)c1cc(C(F)(F)F)ccc1Cl |  | inconclusive: 14.6 µM [activator, partial curve] |
| COc1ccc(C(CNC(=O)c2cc(S(=O)(=O)NCc3ccccc3)ccc2C)N2CCOCC2)cc1 (centres undefined) | inconclusive: 48% |  |
| COc1cc(/C=C/c2nc3ccccc3c(=O)[nH]2)cc(Br)c1O | inconclusive: 25.1% |  |
| O=c1c(Cl)c(N2CCNCC2)cnn1C12CC3CC(CC(C3)C1)C2 | inactive: 1.07% |  |
| CC(C)(C)n1nc2c(c1NC(=O)Cc1cccs1)CSC2 |  | inconclusive: 0.517 µM [activator, full curve, poor fit] |
| CC(OC(=O)Cc1cccc(C(F)(F)F)c1)C(=O)Nc1ccc(Cl)cn1 (centres undefined) |  | inconclusive: 4.11 µM [activator, single point] |
| CCOc1ccc(-n2c(SCC(=O)Nc3nccs3)nnc2-c2ccoc2C)cc1 | inconclusive: 28% |  |
| CCc1ccc(N2CCN(C(=O)c3ccc(OC)c(OC)c3)CC2)cc1 | inconclusive: 9.48% |  |
| O=C1c2ccccc2C(=O)N1c1ncn[nH]1 | inconclusive: 16.9% |  |
| CCc1nccn1CCC(=O)N1CCCC(N2CCN(c3ccccc3C)CC2)C1 (centres undefined) | inconclusive: 0.947% |  |
| Cc1ccc(C(=O)NC2CC(C)(C)NC(C)(C)C2)cc1Cl | inconclusive: 73.3% |  |
| Cc1ccc(C)c(OCCOCCN2CC(C)OC(C)C2)c1C (centres undefined) | inconclusive: 225% |  |

For convenience, part of the list above.

| Compound | lipid storage change, negative = inhibition | Potency |
| --- | --- | --- |
| CCOC(=O)COc1ccc2cc(C(=O)OCC)c(=O)oc2c1 | inconclusive: -11.5% |  |
| Cc1cc(Cl)ccc1OCC(=O)Nc1ccc(CN2CCOCC2)cc1 | inconclusive: 12.6% |  |
| CCCN1CCC(=O)N([C@H](CSc2ccc(C)cc2)c2ccccc2)CC1 | inconclusive: 10% |  |
| COc1ccc(/C=C2\SC(=Nc3ccccc3)NC2=O)cc1 | inactive: -17.6% |  |
| O=C(Nc1cccc(Br)c1)c1cccc(OC(=S)N2CCOCC2)c1 | inconclusive: -43.2% |  |
| Brc1cccc(CNc2nc3ccccc3n2CCN2CCOCC2)c1 | inconclusive: -18.4% |  |
| CNc1nc(Nc2ccc(C)c(Cl)c2)c2cnn(C)c2n1 | inconclusive: -16.9% |  |
| O=C(CNS(=O)(=O)c1ccc(Br)s1)NCc1ccc2c(c1)OCO2 | inconclusive: 9.81% |  |
| CC(=O)Nc1ccc(S(=O)(=O)Nc2ccc(S(=O)(=O)N3CCCCCC3)cc2)cc1 | inconclusive: 31.4% |  |
| CCC(C)(C)NC(=O)C(c1ccc(OC)cc1)N(C(=O)CCC(=O)Nc1cc(C)on1)c1ccc2c(c1)OCO2 (centres undefined) |  | inconclusive: 0.411 µM [activator, partial curve] |
| COc1ccccc1N1C(=O)c2cccc3c(C(=O)O)ccc(c23)C1=O | inconclusive: -39.8% |  |
| CS(=O)(=O)N(CC(=O)N1CCOCC1)c1cc(C(F)(F)F)ccc1Cl |  | inconclusive: 14.6 µM [activator, partial curve] |
| COc1ccc(C(CNC(=O)c2cc(S(=O)(=O)NCc3ccccc3)ccc2C)N2CCOCC2)cc1 (centres undefined) | inconclusive: 48% |  |
| COc1cc(/C=C/c2nc3ccccc3c(=O)[nH]2)cc(Br)c1O | inconclusive: 25.1% |  |
| O=c1c(Cl)c(N2CCNCC2)cnn1C12CC3CC(CC(C3)C1)C2 | inactive: 1.07% |  |
| CC(C)(C)n1nc2c(c1NC(=O)Cc1cccs1)CSC2 |  | inconclusive: 0.517 µM [activator, full curve, poor fit] |
| CC(OC(=O)Cc1cccc(C(F)(F)F)c1)C(=O)Nc1ccc(Cl)cn1 (centres undefined) |  | inconclusive: 4.11 µM [activator, single point] |
| CCOc1ccc(-n2c(SCC(=O)Nc3nccs3)nnc2-c2ccoc2C)cc1 | inconclusive: 28% |  |
| CCc1ccc(N2CCN(C(=O)c3ccc(OC)c(OC)c3)CC2)cc1 | inconclusive: 9.48% |  |
| O=C1c2ccccc2C(=O)N1c1ncn[nH]1 | inconclusive: 16.9% |  |
| CCc1nccn1CCC(=O)N1CCCC(N2CCN(c3ccccc3C)CC2)C1 (centres undefined) | inconclusive: 0.947% |  |
| Cc1ccc(C(=O)NC2CC(C)(C)NC(C)(C)C2)cc1Cl | inconclusive: 73.3% |  |
| Cc1ccc(C)c(OCCOCCN2CC(C)OC(C)C2)c1C (centres undefined) | inconclusive: 225% |  |

Reference: PubChem BioAssay AID2685 (National Center for Advancing Translational Sciences (NCATS), 2010)
